The values that follow come from PMC12373910.

These are yes or no findings as the source states them, for the method shown. Binding seen in cells or lysates may run through a third protein. A yes stands for co-enrichment or nearness to the bait. Other partners may have been found.

The test deals with FLAG-tagged Gnarl3 (orf92) expressed in wild E. coli (ECOR) hosts. Kind of test: affinity purification with mass spectrometry; FLAG-tagged AG expressed in wild ECOR strains; cleared cryomilled lysates on anti-FLAG magnetic agarose beads overnight at 4 °C; eluted with 3xFLAG peptide; triplicates, enrichment against orf74 control samples.

B1: GalE (endogenous, wild E. coli hosts) (enzyme, UniProt P09147 1-338)
chain: MRVLVTGGSGYIGSHTCVQLLQNGHDVIILDNLCNSKRSVLPVIERLGGKHPTFVEGDIRNEALMTEILHDHAIDTVIHFAGLKAVGESVQKPLEYYDNNVNGTLRLISAMRAANVKNFIFSSSATVYGDQPKIPYVESFPTGTPQSPYGKSKLMVEQILTDLQKAQPDWSIALLRYFNPVGAHPSGDMGEDPQGIPNNLMPYIAQVAVGRRDSLAIFGNDYPTEDGTGVRDYIHVMDLADGHVVAMEKLANKPGVHIYNLGAGVGNSVLDVVNAFSKACGKPVNYHFAPRREGDLPAYWADASKADRELNWRVTRTLDEMAQDTWHWQSRHPQGYPD
Turning to B1, the binding entry is listed as “binds”.

B2: GalF (endogenous, wild E. coli hosts) (protein, UniProt P0AAB6 1-297)
chain: MTNLKAVIPVAGLGMHMLPATKAIPKEMLPIVDKPMIQYIVDEIVAAGIKEILLVTHASKNAVENHFDTSYELESLLEQRVKRQLLAEVQSICPPGVTIMNVRQGEPLGLGHSILCARPAIGDNPFVVVLPDVVIDDASADPLRYNLAAMIARFNETGRSQVLAKRMPGDLSEYSVIQTKEPLDREGKVSRIVEFIEKPDQPQTLDSDIMAVGRYVLSADIWPELERTQPGAWGRIQLTDAIAELAKKQSVDAMLMTGDSYDCGKKMGYMQAFVKYGLRNLKEGAKFRKGIEKLLSE
Turning to B2, the binding entry is “binds”.

B3: GalU (endogenous, wild E. coli hosts) (enzyme, UniProt P0AEP3 1-302)
chain: MAAINTKVKKAVIPVAGLGTRMLPATKAIPKEMLPLVDKPLIQYVVNECIAAGITEIVLVTHSSKNSIENHFDTSFELEAMLEKRVKRQLLDEVQSICPPHVTIMQVRQGLAKGLGHAVLCAHPVVGDEPVAVILPDVILDEYESDLSQDNLAEMIRRFDETGHSQIMVEPVADVTAYGVVDCKGVELAPGESVPMVGVVEKPKADVAPSNLAIVGRYVLSADIWPLLAKTPPGAGDEIQLTDAIDMLIEKETVEAYHMKGKSHDCGNKLGYMQAFVEYGIRHNTLGTEFKAWLEEEMGIKK
Regarding B3, the binding entry is given as “binds”.
